Measurements taken from article PMC10590414.
These are yes or no findings as the source states them, for the method shown. A result given as binding can be weak or reduced; the word gives no strength.

The chains behind the UniProt entries cited, without tags or fusion partners. Where a name states a change or a piece, a line headed by the entry shows the natural chain unless it says otherwise.
UniProt P35222: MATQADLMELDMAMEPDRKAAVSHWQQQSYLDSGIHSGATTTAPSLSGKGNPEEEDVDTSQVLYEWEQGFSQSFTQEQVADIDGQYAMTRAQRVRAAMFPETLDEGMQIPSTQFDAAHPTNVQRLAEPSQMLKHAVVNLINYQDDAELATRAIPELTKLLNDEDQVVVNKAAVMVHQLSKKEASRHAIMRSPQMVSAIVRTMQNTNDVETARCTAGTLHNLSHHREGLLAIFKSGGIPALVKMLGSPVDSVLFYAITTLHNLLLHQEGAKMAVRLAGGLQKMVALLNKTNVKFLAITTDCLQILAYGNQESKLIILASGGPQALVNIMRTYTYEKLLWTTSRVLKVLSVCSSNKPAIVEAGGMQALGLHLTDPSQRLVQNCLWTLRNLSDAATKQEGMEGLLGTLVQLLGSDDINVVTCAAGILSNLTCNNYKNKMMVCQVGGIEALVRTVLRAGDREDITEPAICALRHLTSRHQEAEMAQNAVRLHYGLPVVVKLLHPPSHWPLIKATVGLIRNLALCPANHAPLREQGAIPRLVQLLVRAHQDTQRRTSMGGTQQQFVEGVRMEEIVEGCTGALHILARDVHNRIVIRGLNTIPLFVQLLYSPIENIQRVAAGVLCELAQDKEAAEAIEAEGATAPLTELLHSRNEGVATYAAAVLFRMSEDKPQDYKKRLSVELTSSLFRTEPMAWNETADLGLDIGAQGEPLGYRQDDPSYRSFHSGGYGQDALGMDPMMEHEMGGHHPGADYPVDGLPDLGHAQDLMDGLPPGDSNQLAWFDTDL
UniProt Q9Y397: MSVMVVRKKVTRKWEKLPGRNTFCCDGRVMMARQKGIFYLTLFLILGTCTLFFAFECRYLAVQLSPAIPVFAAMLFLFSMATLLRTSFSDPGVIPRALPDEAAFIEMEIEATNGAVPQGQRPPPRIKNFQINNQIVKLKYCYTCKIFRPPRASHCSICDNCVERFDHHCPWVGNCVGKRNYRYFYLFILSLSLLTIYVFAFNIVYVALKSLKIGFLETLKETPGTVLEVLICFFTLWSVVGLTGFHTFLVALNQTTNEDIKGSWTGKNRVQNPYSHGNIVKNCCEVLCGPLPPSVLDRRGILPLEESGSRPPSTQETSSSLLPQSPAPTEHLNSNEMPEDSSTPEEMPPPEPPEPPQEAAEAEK

Biological target: Recombinant Human β-catenin protein (human) (UniProt P35222)
Assay: pull-down; GST pull-down: His-tagged purified protein (200 ng) mixed with GST fusion protein (100 ng) in 50 mM Tris-HCl pH 7.5, 1% Triton X-100, 150 mM NaCl, 1 mM DTT, 0.5 mM EDTA for 1 h, glutathione agarose 30 min at 4 °C, immunoblot; both purified

## Recombinant Human DHHC9 protein (from UniProt Q9Y397) (enzyme)
  binding: binds
